# Measurements reported in patent US20250135016A1 (University of Washington, priority 2016, published 2025).
# * marks the point of attachment. Fmoc = O=C(OCC1c2ccccc2-c2ccccc21)*
# Columns and labels:
# [1] = general procedure: Fmoc solid-phase peptide synthesis; rink amide; HBTU/DIEA; settings: whole synthesis
# [2] = general procedure: Fmoc solid-phase peptide synthesis; Rink amide resin; HBTU/DIEA; settings: for step yield: late stage modification step; for oxidative folding yield: oxidative folding step; for isolated yield / isolated mass: whole synthesis; for isolated yield: overall
# [3] = general procedure: Fmoc solid-phase peptide synthesis; Rink amide; HBTU/DIEA; settings: whole synthesis, scale 0.5 mmol; for isolated yield: overall
substance,measurement,setting,value
Fmoc-GGGGRGK(oNB-N3)GGPQGIWGQGK(CO(CH2)2CCH)GRGK-NH2,isolated mass,[1]; scale 0.25 mmol,85 mg
same,isolated yield,[1]; scale 0.25 mmol,12.7%
Fmoc-GGGGRGCGPQGIWGQGQGCGRK-NH2 (cysteine pairing not given here),isolated mass,[1]; scale 0.25 mmol,126.5 mg
same,isolated yield,[1]; scale 0.25 mmol,23.9%
Fmoc-GGGGRG-oNB-GRC(HN(CO(CH2)3N3)—C—OH)—NH2 (before N3—OSu),step yield,[2],53.1%
Fmoc-GGGGRGK(oNB-N3)GGPQGIWGQGK(CO(CH2)2CCH)GRGK-NH2 (stapled),cyclisation yield,[2]; cyclisation step,9.18%
N3-oNB-RGGRK(N3)—NH2,isolated yield,[3],29.8% overall yield
same,isolated mass,[3],147.4 mg
Fmoc-GGGGRGCG-oNB-GGCGRK-NH2 (stapled),oxidative folding yield,[2],59.8%
N3—(CH2)3CONH-RGPQGIWGQGRK(CO(CH2)3N3))—NH2,isolated yield,[3],28.4% overall yield
same,isolated mass,[3],222.0 mg
Fmoc-GGGGRGK(oNB)GGPQGIWGQGK(CO(CH2)2)GRGK(CO(CH2)3—N3)—NH2,step yield,[2],98%
Fmoc-GGGGRGPQGIWGQGRC (CO(CH2)3N3)Cys)-NH2,step yield,[2],61.8%
FAM-GRCG-PL-GCGRK(CO(CH2)3N3)—NH2,isolated yield,[2]; scale 0.25 mmol,1.04%
same,isolated mass,[2]; scale 0.25 mmol,5.7 mg
FAM-GRGCGPQGIWGQGCGRK(PL-N3)—NH2,isolated yield,[2]; scale 0.25 mmol,1.04%
same,isolated mass,[2]; scale 0.25 mmol,5.7 mg
H-GGGGRGPQGIWGQGRK(N3)—NH2,isolated mass,[1]; scale 0.25 mmol,97.6 mg
same,isolated yield,[1]; scale 0.25 mmol,24.5%
FAM-RGPQGIWGQGRK(N3)—NH2,isolated yield,"[1]; overall, scale 0.50 mmol",6.52% overall
same,isolated mass,[1]; scale 0.50 mmol,56.2 mg
FAM-GRGPQGIWGQGRK(PL-N3)),isolated yield,[2]; scale 0.25 mmol,1.9%
same,isolated mass,[2]; scale 0.25 mmol,10.3 mg
Fmoc-GGGGRGCGPQGIWGQGQGCGRK(CO(CH2)3N3)—NH2,step yield,[2],68.6%
Fmoc-GGGGRGCG-oNB-GGCGRK(CO(CH2)3N3)—NH2,step yield,[2],50%
Fmoc-GGGGRGCGPQGIWGQGQGCGRK-NH2 (staple (positions not given here)),oxidative folding yield,[2],37.7%
Fmoc-GGGGRC-(H—C—OH)—NH2,step yield,[2],14%
Fmoc-GGGGRG-oNB-GRC-NH2,isolated mass,[1]; scale 0.25 mmol,75 mg
same,isolated yield,[1]; scale 0.25 mmol,22%
FAM-GRGCGPQGIWGQGCGRK(CO(CH2)3N3)—NH2,isolated yield,[2]; scale 0.25 mmol,1.04%
same,isolated mass,[2]; scale 0.25 mmol,5.7 mg
Fmoc-GGGGRC(HN(CO(CH2)3—N3)Cys)-NH2,step yield,[2],97%
FAM-GRRGPQGIWGQGRGRC(—S—S—C-PL-N3)—NH2,isolated yield,[2]; scale 0.50 mmol,9.2%
same,isolated mass,[2]; scale 0.50 mmol,60.0 mg
Fmoc-GGGGRG-oNB-GRC(HN(CO(CH2)3N3)—C—OH)—NH2,step yield,[2],82.9%
FAM-GRGPQGIWGQGRC(—S—S—C—CO(CH2)3N3)—NH2,isolated yield,[2]; scale 0.50 mmol,4.4%
same,isolated mass,[2]; scale 0.50 mmol,21.7 mg
H-GGGGRC((CO(CH2)3—N3)Cys)-NH2,step yield,[2],21.3%
Fmoc-GGGGRGCG-oNB-GGCGRK-NH2,isolated mass,[1]; scale 0.25 mmol,100 mg
same,isolated yield,[1]; scale 0.25 mmol,22%
H-GGGGRK(oNB-N3)—NH2,isolated mass,[1]; scale 0.25 mmol,41.1 mg
same,isolated yield,[1]; scale 0.25 mmol,17.83%
Fmoc-GGGGRGPQGIWGQGRC(NH2—C—OH)—NH2,step yield,[2],68.5%
